Assay results: PMC10651854

T1: Nuclear receptor subfamily 2 group F member 1 (NR2F1) (human (endogenous in GBM cells)) (UniProt P10589)
T1 sequence: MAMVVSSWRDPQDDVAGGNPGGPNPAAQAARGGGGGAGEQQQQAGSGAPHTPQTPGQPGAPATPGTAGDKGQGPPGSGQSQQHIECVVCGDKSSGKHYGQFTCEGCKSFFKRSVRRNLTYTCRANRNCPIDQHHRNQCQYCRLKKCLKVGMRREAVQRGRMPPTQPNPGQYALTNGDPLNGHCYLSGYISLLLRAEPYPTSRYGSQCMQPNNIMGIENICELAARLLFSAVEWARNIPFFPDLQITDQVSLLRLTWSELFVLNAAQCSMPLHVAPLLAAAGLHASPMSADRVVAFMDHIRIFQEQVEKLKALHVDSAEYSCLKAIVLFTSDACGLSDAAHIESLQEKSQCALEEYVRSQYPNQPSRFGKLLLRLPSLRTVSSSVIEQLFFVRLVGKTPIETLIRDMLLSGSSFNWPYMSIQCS

B1: Nuclear receptor subfamily 2 group F member 1 (NR2F1) (protein, UniProt P10589 1-423)
chain: MAMVVSSWRDPQDDVAGGNPGGPNPAAQAARGGGGGAGEQQQQAGSGAPHTPQTPGQPGAPATPGTAGDKGQGPPGSGQSQQHIECVVCGDKSSGKHYGQFTCEGCKSFFKRSVRRNLTYTCRANRNCPIDQHHRNQCQYCRLKKCLKVGMRREAVQRGRMPPTQPNPGQYALTNGDPLNGHCYLSGYISLLLRAEPYPTSRYGSQCMQPNNIMGIENICELAARLLFSAVEWARNIPFFPDLQITDQVSLLRLTWSELFVLNAAQCSMPLHVAPLLAAAGLHASPMSADRVVAFMDHIRIFQEQVEKLKALHVDSAEYSCLKAIVLFTSDACGLSDAAHIESLQEKSQCALEEYVRSQYPNQPSRFGKLLLRLPSLRTVSSSVIEQLFFVRLVGKTPIETLIRDMLLSGSSFNWPYMSIQCS

Tests used:
[1] = biological target: T1, Nuclear receptor subfamily 2 group F member 1 (NR2F1) (human (endogenous in GBM cells)); assay: co-IP; Pierce Co-IP Kit; primary antibody (anti-463aa or anti-NR2F1) immobilised on AminoLink Plus Coupling Resin; GBM cell lysates overnight at 4 °C; eluates analysed by western blot
[2] = biological target: circHECTD1-encoded functional peptide 463aa (human (endogenous in GBM cells)); assay: as above

Molecule	binding [1]	binding [2]
circHECTD1-encoded functional peptide 463aa (human (endogenous in GBM cells))	binds	
B1		binds

No constants are given. Whether binding was seen depends on the method and setting. Binding seen in cells or lysates may run through a third protein. Binding calls can cover weak binding; strength is not graded here.
